According to PubChem BioAssay AID493014 (National Center for Advancing Translational Sciences (NCATS), 2011):
About 170 (0.05%) of roughly 340,000 compounds were called active. The shares of active, inactive and inconclusive entries below differ from those in the screen. Calls follow the shape of the dose curve; as a rule, active = well fitted inhibition curve with a large enough effect in the signal ratio, with a control signal flat (not every such curve was filed as active); inconclusive = small, poorly fitted or top-dose-only effect, or effect the other way, or a change in a side signal; inactive = flat fitted curve, though single readings scatter; the % refers to the signal ratio. A potency beside an inconclusive call is a rough fit, not a confirmed value.
Potency is read from the fitted curve at half-maximal effect.

Experiment: qHTS Assay to Find Inhibitors of Chronic Active B-Cell Receptor Signaling;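 as to activity change, negative = inhibition: plate controls were basal doxycycline-induced cells for no effect and cells given 10 µM MG132 for full effect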
Conditions: ABC-DLBCL IkBa-CBG/CBR reporter, luminescence ratio (green luciferase fused to IkBa over red control in TMD8 lymphoma cells), 4 h; activity change, negative = inhibition: at 46.1 µM (top of the series) unless noted
Summary of the method: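 TMD8 human ABC-DLBCL cells with doxycycline-inducible IκBα–green luciferase fusion and unfused red luciferase, in 0.5% FBS medium; compounds up to 46 uM, 4 h at 37C. Green/red luminescence ratio, filter-overlap corrected, fitted to concentration-response curves.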
With `COC(=O)c1c(-c2ccco2)csc1NC(=O)C1CC=CCC1C(=O)O` (stereo not drawn) the activity change, negative = inhibition was inconclusive: 11.7%. With `CC(C)Cc1nc2oc3c(NCC4CCCO4)ncnc3c2c2c1CCC2` (stereo not drawn) the activity change, negative = inhibition was inconclusive: 0.985%. In the case of `Cc1ccc(C(=O)Nc2ccncc2)cc1[N+](=O)[O-]`, the “activity change, negative = inhibition” value is reported as inactive: 0.557%. With `Cc1cccc(C(=O)NCC(c2ccco2)N(C)C)c1` (stereo not drawn) the activity change, negative = inhibition was inconclusive: 6.89%. For `CCc1nn2c(=O)cc(CSc3nc(C)cc(=O)[nH]3)nc2s1`, the activity change, negative = inhibition was inconclusive: 6.79%. With `COCCn1c(SCC(=O)Nc2ccc(S(=O)(=O)N3CCOCC3)cc2)nc2ccccc21` the activity change, negative = inhibition was inconclusive: 2.68%. For `CCCCN(C(=O)c1ccc([N+](=O)[O-])o1)c1c(N)n(CCCC)c(=O)[nH]c1=O`, the “activity change, negative = inhibition” value was inactive: 7.32%. With `Cc1noc(C(=O)Nc2cccnc2)c1Cl` the “activity change, negative = inhibition” value was inactive: 22.1%. For `Cc1ccc(-c2cc(-c3ccccc3C)[nH]n2)c(O)c1`, the activity change, negative = inhibition was inconclusive: -10.1%. With `O=C(N/N=C/C=C/c1ccco1)c1cccnc1` the Potency was inconclusive: 20.6 µM [falling, partial curve]. In the case of `CC(=O)Nc1ccc(SCc2ncc(-c3ccccc3)o2)cc1`, the Potency is reported as inconclusive: 11.2 µM [falling, partial curve, poor fit]. With `Cc1nc2ccccc2c(N)c1C(=O)/C=C/c1ccccc1` the Potency was inconclusive: 12.6 µM [falling, partial curve]. In the case of `CCOC(=O)N1C(=O)C2(CCCCC2)N(c2ccccc2Cl)C1=S`, the activity change, negative = inhibition is reported as inconclusive: 12.6%. In the case of `Cc1ccc(S(=O)(=O)NCC2(c3ccccc3)CCN(C)CC2)cc1`, the activity change, negative = inhibition is reported as inconclusive: -5.75%. For `COC(=O)c1ccc(S(=O)(=O)N2Cc3ccccc3C2)cc1`, the “activity change, negative = inhibition” value was inactive: -9.04%. With `C=CCn1c(CNC(=O)c2ccco2)nnc1SCC(=O)c1ccc(F)cc1` the activity change, negative = inhibition was inconclusive: -26.8%. With `CNC(=O)COC(=O)c1c2c(nc3ccccc13)CCC2` the activity change, negative = inhibition was inconclusive: 23.5%. With `O=C(N/N=C/c1c[nH]c2ccccc12)C1COc2ccccc2O1` (stereo not drawn) the activity change, negative = inhibition was inconclusive: 13.6%. With `N#CC(C(=O)Nc1ccccc1)=C1Nc2ccccc2N1` the activity change, negative = inhibition was inconclusive: 4.6%. In the case of `CCOc1ccc2nc(SCC3CC3(Cl)Cl)[nH]c2c1` (stereo not drawn), the activity change, negative = inhibition is reported as inconclusive: 9.17%. For `COc1ccc(N2CCN(C(=O)c3ccc4c(c3)N(Cc3cccc(Cl)c3)C(=O)c3ccccc3S4(=O)=O)CC2)cc1`, the activity change, negative = inhibition was inconclusive: 4.92%. With `Cc1ccc(NC(=S)NCC2CCCO2)c(OC(F)F)c1` (stereo not drawn) the “activity change, negative = inhibition” value was inactive: 5.08%. In the case of `O=C(NCC1CCCO1)C(c1cccs1)N(C(=O)Cn1nnc(-c2cccs2)n1)C1CCCC1` (stereo not drawn), the “activity change, negative = inhibition” value is reported as inactive: 6.62%. For `O=C(NC(=S)Nc1ccccn1)c1cc(-c2ccccc2)nc2ccccc12`, the Potency was inconclusive: 23.1 µM [falling, partial curve, poor fit]. With `CCc1cc(C(=O)OC)c(N2C(=O)C3C4C=CC(C4)C3C2=O)s1` (stereo not drawn) the activity change, negative = inhibition was inconclusive: 5.67%. For `CN(C)S(=O)(=O)NC(=O)C1=C(N2CCCC2)COC1=O`, the “activity change, negative = inhibition” value was inactive: 1.13%. For `CCOC(=O)N1CCN(C(=O)Cc2cccc3ccccc23)CC1`, the activity change, negative = inhibition was inconclusive: 12.6%. For `Cc1ccc(NC(=O)c2ccn(C)n2)c(Br)c1`, the activity change, negative = inhibition was inconclusive: 9.33%. With `CCCN(CCC)CCNC(=O)C(NS(=O)(=O)c1ccc2c(c1)CCC(=O)N2)c1ccccc1` (stereo not drawn) the activity change, negative = inhibition was inconclusive: 3.22%. With `Cc1ccnn1-c1ccc(C(=O)OCC(=O)Nc2ccc(F)cc2)cc1` the activity change, negative = inhibition was inconclusive: 6.66%. For `Cc1ccc(OS(=O)(=O)c2c(C)nn(C)c2Cl)c(C)c1`, the activity change, negative = inhibition was inconclusive: -15.3%. In the case of `CCN(C(=O)CCS(=O)(=O)c1cccc2nonc12)c1ccc(F)cc1`, the “activity change, negative = inhibition” value is reported as inactive: 9.03%. For `C/C=C/c1ccccc1OCc1ccc(C(=O)O)o1`, the Potency was inconclusive: 29.1 µM [falling, single point]. With `CN1C(=O)/C(=C/c2ccccc2OCc2cccc(F)c2)N(C)C1=S` the activity change, negative = inhibition was inconclusive: 6.03%. In the case of `COc1ccc(OCCOC(=O)c2ccc(F)c(S(=O)(=O)N3CCOCC3)c2)cc1`, the activity change, negative = inhibition is reported as inconclusive: -1.37%. In the case of `O=C(CN1CCN(c2ccccc2F)CC1)c1ccc2cc[nH]c2c1`, the “activity change, negative = inhibition” value is reported as inactive: -4.44%. In the case of `NC(=O)c1ccc(Nc2nnc(-c3ccc(O)cc3)c3ccccc23)cc1`, the Potency is reported as inconclusive: 25.1 µM [falling, partial curve]. In the case of `COc1ccc(/C=N/NC(=O)c2ccccc2Cl)cc1CSc1nc2ccccc2s1`, the Potency is reported as inconclusive: 18.4 µM [falling, partial curve]. With `CC(=O)C1(O)C(C)CC2C3CCC4CC(O)CCC4(C)C3=CCC21C` (stereo not drawn) the “activity change, negative = inhibition” value was inactive: 1.84%. In the case of `CCC1CCCN1Cn1cnc2c([nH]c3ccccc32)c1=O` (stereo not drawn), the activity change, negative = inhibition is reported as inconclusive: -0.653%. In the case of `CCCCc1ccc(-c2nc(NC(=O)C3C4CCC(O4)C3C(=O)O)sc2C)cc1` (stereo not drawn), the activity change, negative = inhibition is reported as inconclusive: -0.263%. With `Cc1ccc(-n2nc(C)c3c2OC(N)=C(C#N)C3c2ccc(C)o2)cc1` (stereo not drawn) the activity change, negative = inhibition was inconclusive: 17.3%. With `COc1cc(SC)ccc1C(=O)OCC(=O)NCCNC(=O)COC(=O)c1ccc(SC)cc1OC` the Potency was inconclusive: 5.01 µM [falling, partial curve]. In the case of `Cc1cccc(-c2noc(CCC(=O)NCc3ccco3)n2)c1`, the Potency is reported as inconclusive: 23.1 µM [rising, single point]. For `O=C(Oc1c(CN2CCOCC2)cc(Cl)c2cccnc12)c1ccccc1Br`, the Potency was inconclusive: 0.794 µM [falling, full curve, poor fit]. With `Cc1c(/C=N/Nc2ccc([N+](=O)[O-])cn2)c2ccccc2n1Cc1ccccc1` the activity change, negative = inhibition was inconclusive: 15.8%. With `CCn1c(SCC(=O)c2c[nH]c3ccccc23)nc2cc(S(=O)(=O)N3CCOCC3)ccc21` the Potency was inconclusive: 29.1 µM [falling, partial curve, poor fit]. For `O=C(CCCN1C(=O)/C(=C/c2ccccc2)SC1=S)Nc1ccccc1O`, the Potency was inconclusive: 15.8 µM [falling, partial curve]. In the case of `CC1=NN(c2ccccc2)C(=O)/C1=C/c1c(O)n(-c2ccc(F)c(Cl)c2)[nH]c1=O`, the activity change, negative = inhibition is reported as inconclusive: 0.622%. With `COCCCn1[nH]c2c3c(ccc2c1=O)C(=O)c1ccccc1C3=O` the Potency was inconclusive: 0.206 µM [rising, full curve]. In the case of `CN1CCN(C(=O)c2cc3c(s2)-c2ccccc2S(=O)(=O)C3)CC1`, the activity change, negative = inhibition is reported as inconclusive: 8.47%. For `Cc1cc(NC(C)c2ccccc2)n2ncc(-c3ccccc3)c2n1` (stereo not drawn), the activity change, negative = inhibition was inconclusive: -4.53%. For `CCOC(=O)N1CCN(C(=O)c2c(Cl)cnn2C)CC1`, the “activity change, negative = inhibition” value was inactive: 0.932%. With `CC(Oc1ccc2c(c1)c1ccnc3c4ccccc4c(=O)n2c13)C(=O)NCCN1CCOCC1` (stereo not drawn) the activity change, negative = inhibition was inconclusive: -49.8%. In the case of `Cc1ccc(NC(=O)CN2C(=O)S/C(=C\c3cccn3-c3cccc(C(=O)O)c3)C2=O)cc1C`, the “activity change, negative = inhibition” value is reported as inactive: 11.9%. In the case of `CN(C)S(=O)(=O)c1ccc(NC(=O)N2CCN(c3cccc(C(F)(F)F)c3)CC2)cc1`, the activity change, negative = inhibition is reported as inconclusive: -24.1%. With `Cc1ccccc1NC(=O)Cn1c(=O)sc2ccccc21` the activity change, negative = inhibition was inconclusive: 4.05%. For `N#C/C(=C\c1ccccc1O)C(=O)Nc1cccnc1`, the Potency was inconclusive: 20 µM [falling, partial curve]. With `COc1cc(OC)cc(C(=O)NCC(=O)Nc2ccc(C)c(Cl)c2)c1` the “activity change, negative = inhibition” value was inactive: -6.03%. For `CCOC(=O)c1ccc(NC(=O)Nc2cc(C)cc(C)n2)cc1`, the activity change, negative = inhibition was inconclusive: -5.96%. With `CCCc1nnc(NC(=O)CCC(=O)N2CCN(S(=O)(=O)c3ccc(C)cc3)CC2)s1` the activity change, negative = inhibition was inconclusive: 0.477%. With `CCC(=O)OCc1c(C(F)(F)F)nn(C)c1Sc1ccc(Cl)cc1` the activity change, negative = inhibition was inconclusive: 2.35%. In the case of `CC(=O)COc1ccccc1OC(=O)c1ccco1`, the activity change, negative = inhibition is reported as inconclusive: 2.78%. For `S=C(NCCN1CCCCC1)Nc1ccccc1`, the “activity change, negative = inhibition” value was inactive: -1.49%. In the case of `CC(NC(=O)CCl)c1ccccc1Br` (stereo not drawn), the activity change, negative = inhibition is reported as inconclusive: -13.6%. With `O=C(c1cccnc1)n1nc(-c2ccco2)nc1NCc1cccs1` the Potency was inconclusive: 35.5 µM [falling, single point]. For `O=C(Nc1ccc(-c2cnco2)cc1)c1ccccc1`, the Potency was inconclusive: 3.55 µM [falling, partial curve]. In the case of `O=C(NC(=S)N(Cc1ccccc1)Cc1ccccc1)c1ccccc1F`, the “activity change, negative = inhibition” value is reported as inactive: 1.41%. With `C=CCN1CC(C(=O)N2CCC(Cc3ccc(Cl)cc3)(C(=O)OCC)CC2)CC1=O` (stereo not drawn) the activity change, negative = inhibition was inconclusive: -2.87%. In the case of `COc1ccc(N(C(=O)c2ccc(Cl)cc2)C2=CC3CCC(C2)N3C)cc1` (stereo not drawn), the Potency is reported as inconclusive: 3.66 µM [falling, single point]. In the case of `CC(NS(=O)(=O)c1ccc(F)cc1)C(=O)Nc1ccc2c(c1)OCCO2` (stereo not drawn), the “activity change, negative = inhibition” value is reported as inactive: 2.77%. For `O=C(O)CCCCCNC(=O)c1ccccc1`, the Potency was inconclusive: 16.4 µM [rising, single point]. With `O=C(NCc1ccc(F)cc1)c1cc(-c2ccncc2)nc2ccccc12` the activity change, negative = inhibition was inconclusive: -16.3%. With `CCOc1ccc(C(=S)NC2CCCCC2)cc1` the Potency was inconclusive: 35.5 µM [falling, single point]. In the case of `O=C(Nc1ccc2nc(-c3ccco3)[nH]c2c1)c1ccco1`, the activity change, negative = inhibition is reported as inconclusive: 10.7%. In the case of `Cc1ccc(Cl)cc1N1CCN(C(=O)Cn2ncn3cccc3c2=O)CC1`, the “activity change, negative = inhibition” value is reported as inactive: 5.52%. In the case of `COc1cccc(/C=N/NC(=O)C(=O)NCc2ccco2)c1OC`, the “activity change, negative = inhibition” value is reported as inactive: 10.8%. For `COc1cc(CCC(=O)Nc2cnc3ccccc3c2)cc(OC)c1OC`, the activity change, negative = inhibition was inconclusive: -1.42%. For `Cc1cc(C)n2ncc(C(=O)NCc3ccc(Cl)cc3)c2n1`, the Potency was inconclusive: 3.66 µM [falling, full curve, poor fit]. For `CN(Cc1cn[nH]c1-c1ccc2c(c1)OCO2)C1CCOCC1`, the “activity change, negative = inhibition” value was inactive: 0.752%. In the case of `CCN1CCN(c2ccc(NC(=O)CCc3c(C)nc4c(-c5ccc(F)cc5)c(C)nn4c3C)cc2)CC1`, the “activity change, negative = inhibition” value is reported as inactive: -14%. For `Cc1c(C(=O)N2CCN(c3ccccc3F)CC2)sc2nc(-c3ccccc3)cn12`, the “activity change, negative = inhibition” value was inactive: 1.55%. In the case of `N#Cc1cccnc1Nc1cccc(Cl)c1`, the activity change, negative = inhibition is reported as inconclusive: 1.66%.
